No constants are given. Whether binding was seen depends on the method and setting. In cells and extracts the contact can be indirect. Here binding means that the protein was enriched with, or labelled near, the bait; the list need not be complete.
B1: 14-3-3γ (protein, UniProt P61981 1-247)
chain: MVDREQLVQKARLAEQAERYDDMAAAMKNVTELNEPLSNEERNLLSVAYKNVVGARRSSWRVISSIEQKTSADGNEKKIEMVRAYREKIEKELEAVCQDVLSLLDNYLIKNCSETQYESKVFYLKMKGDYYRYLAEVATGEKRATVVESSEKAYSEAHEISKEHMQPTHPIRLGLALNYSVFYYEIQNAPEQACHLAKTAFDDAIAELDTLNEDSYKDSTLIMQLLRDNLTLWTSDQQDDDGGEGNN
B2: 14-3-3η (protein, UniProt Q04917 1-246)
chain: MGDREQLLQRARLAEQAERYDDMASAMKAVTELNEPLSNEDRNLLSVAYKNVVGARRSSWRVISSIEQKTMADGNEKKLEKVKAYREKIEKELETVCNDVLSLLDKFLIKNCNDFQYESKVFYLKMKGDYYRYLAEVASGEKKNSVVEASEAAYKEAFEISKEQMQPTHPIRLGLALNFSVFYYEIQNAPEQACLLAKQAFDDAIAELDTLNEDSYKDSTLIMQLLRDNLTLWTSDQQDEEAGEGN

Amino acid sequences for entries named in this document (tags omitted). Residues count along the entry.
UniProt P03186, residues 1-325: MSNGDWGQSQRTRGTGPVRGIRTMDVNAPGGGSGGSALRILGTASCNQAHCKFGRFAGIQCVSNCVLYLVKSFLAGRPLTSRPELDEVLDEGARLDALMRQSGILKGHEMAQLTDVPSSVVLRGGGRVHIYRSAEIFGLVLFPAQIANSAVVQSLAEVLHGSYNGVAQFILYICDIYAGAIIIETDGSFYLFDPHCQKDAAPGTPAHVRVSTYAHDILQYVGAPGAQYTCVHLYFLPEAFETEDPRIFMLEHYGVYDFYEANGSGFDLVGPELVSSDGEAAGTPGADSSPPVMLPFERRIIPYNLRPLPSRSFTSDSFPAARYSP
UniProt P31946: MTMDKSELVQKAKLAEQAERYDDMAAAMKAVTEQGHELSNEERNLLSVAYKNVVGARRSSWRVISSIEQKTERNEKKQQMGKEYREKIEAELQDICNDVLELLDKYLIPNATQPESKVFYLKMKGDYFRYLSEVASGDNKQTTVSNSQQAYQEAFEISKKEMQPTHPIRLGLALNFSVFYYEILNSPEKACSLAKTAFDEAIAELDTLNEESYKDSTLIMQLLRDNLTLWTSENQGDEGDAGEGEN
UniProt P62258: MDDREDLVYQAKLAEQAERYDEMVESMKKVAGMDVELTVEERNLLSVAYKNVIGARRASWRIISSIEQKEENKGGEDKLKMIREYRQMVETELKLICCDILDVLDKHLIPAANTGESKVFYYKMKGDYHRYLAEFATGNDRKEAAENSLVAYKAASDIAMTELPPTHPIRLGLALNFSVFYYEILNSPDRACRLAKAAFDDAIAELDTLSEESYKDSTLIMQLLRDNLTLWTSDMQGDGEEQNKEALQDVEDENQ
UniProt P63104: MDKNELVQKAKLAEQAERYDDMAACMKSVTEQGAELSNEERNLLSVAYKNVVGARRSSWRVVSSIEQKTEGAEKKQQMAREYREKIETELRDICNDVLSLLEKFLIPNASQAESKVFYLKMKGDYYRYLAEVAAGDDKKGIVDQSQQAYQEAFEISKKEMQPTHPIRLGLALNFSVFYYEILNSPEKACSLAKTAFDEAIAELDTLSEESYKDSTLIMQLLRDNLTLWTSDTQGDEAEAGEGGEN
UniProt Q14258: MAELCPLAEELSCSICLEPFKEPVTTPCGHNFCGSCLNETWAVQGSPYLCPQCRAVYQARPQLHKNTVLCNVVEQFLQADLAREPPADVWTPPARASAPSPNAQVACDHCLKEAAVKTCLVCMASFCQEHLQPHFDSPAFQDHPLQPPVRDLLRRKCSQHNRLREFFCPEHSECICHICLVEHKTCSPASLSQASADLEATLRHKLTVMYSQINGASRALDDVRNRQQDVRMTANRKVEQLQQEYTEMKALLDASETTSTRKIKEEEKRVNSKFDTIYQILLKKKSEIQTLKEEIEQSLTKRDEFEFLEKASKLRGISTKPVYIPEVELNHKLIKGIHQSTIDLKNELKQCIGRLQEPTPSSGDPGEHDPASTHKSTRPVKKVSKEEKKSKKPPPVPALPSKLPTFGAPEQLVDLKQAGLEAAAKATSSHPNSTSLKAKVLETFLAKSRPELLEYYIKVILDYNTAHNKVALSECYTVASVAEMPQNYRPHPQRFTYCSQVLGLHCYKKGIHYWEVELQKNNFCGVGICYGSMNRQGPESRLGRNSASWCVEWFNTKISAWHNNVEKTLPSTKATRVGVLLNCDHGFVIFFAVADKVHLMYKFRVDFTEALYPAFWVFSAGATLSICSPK

These molecules were tested against FLAG-BPLF1 (aa 1-325), catalytically active N-terminal domain of BPLF1 (Epstein-Barr virus) (UniProt P03186) (assay: affinity purification with mass spectrometry; anti-FLAG agarose on 10 mg clarified lysate of transfected HeLa cells (NP-40 lysis buffer, 150 mM NaCl, pH 7.6; 4 h at 4°C), elution with FLAG peptide, SDS-PAGE, LC/MS/MS; hits absent from the FLAG-empty vector control; two independent experiments).

Row | Molecule | binding
1 | 14-3-3β (from UniProt P31946 1-246) | binds
2 | 14-3-3ε (from UniProt P62258 1-255) | binds
3 | 14-3-3ζ (from UniProt P63104 1-245) | binds
4 | EGFR (from UniProt P00533 25-1210) (receptor) | binds
5 | TRIM25 ubiquitin ligase (endogenous) (from UniProt Q14258 1-630) | binds
6 | B1 | binds
7 | B2 | binds

The molecules below were run against FLAG-BPLF1C61A, catalytic mutant of the BPLF1 N-terminal domain (Epstein-Barr virus) in the same assay as above.

Row | Molecule | binding
8 | B1 | binds
9 | B2 | binds
